# From PubChem BioAssay AID2685 (National Center for Advancing Translational Sciences (NCATS), 2010)
# The list shows a part of the results. The main result of the screen is listed elsewhere. These columns were measured beside it and carry no call. The list favours compounds with an active or inconclusive main result. The note in brackets gives the kind of curve behind each potency; many fits are weak.
# Experiment: qHTS Assay for Lipid Storage Modulators in Drosophila S3 Cells;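 on cell number change: cells counted by Cell Tracker Red CMTPX staining in the red channel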
# Conditions: BODIPY lipid droplet fluorescence, 18-24 h; for cell number change: measured here: cell count max response, cells fed with added oleic acid
# In short: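 Laser-scanning cytometry quantifies lipid droplet accumulation (500–530 nm total intensity; droplet/cell object ratio) in oleic acid-fed (400 uM added) Drosophila S3 cells treated with a concentration series. 20 uM Triacsin C defined 100% inhibition.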
# [1] = measured here: cell number channel AC50, cells fed with added oleic acid
# [2] = measured here: lipid fluorescence (Fed channel) AC50, cells fed with added oleic acid
SMILES,cell number change [%],AC50 [1],AC50 [2]
Cc1cc(=O)oc2cc(OCC(=O)Nc3ccc(F)cc3F)ccc12,24.5,"2590 nM [rising, full curve, poor fit]",
Cc1cccc(CC(C)NC(=O)CCc2nnc(CCCCc3ccccc3)o2)n1 (stereo unspecified),9.54,,"130 nM [rising, full curve, poor fit]"
O=C(Cn1cncn1)N/N=C/c1c2ccccc2cc2ccccc12,-9.64,,"5.8 nM [falling, full curve, poor fit]"
O=C(O)C1CCCN1S(=O)(=O)c1ccc(F)cc1 (stereo unspecified),-11.1,,"461 nM [falling, full curve, poor fit]"
COc1ccc(N(CC(=O)Nc2ccc(S(=O)(=O)N3CCOCC3)cc2)S(=O)(=O)c2ccc(F)cc2)cc1,-18.6,,"8200 nM [falling, partial curve]"
C/C(N)=C(/C#N)C(=O)CSc1cc(C)c2ccccc2n1,-47.7,,
Cc1ccc(-n2c(CNc3ccc(F)cc3)nnc2SCC(=O)N2CCCC2)cc1,153,,
Cc1c(N=C2SCC(=O)N2/N=C/c2ccccc2Cl)c(=O)n(-c2ccccc2)n1C,,"731 nM [falling, full curve, poor fit]","411 nM [falling, partial curve, poor fit]"
CCCCS(=O)(=O)N1CCN(S(=O)(=O)c2cccs2)CC1,15,,
CC1CCc2c(sc(NC(=O)c3ccco3)c2C(=O)O)C1 (stereo unspecified),-7.14,,
COc1ccccc1N/C=C1/Sc2cc(Cl)ccc2NC1=O,8.19,,"5.8 nM [rising, full curve, poor fit]"
O=C(Cc1ccccc1[N+](=O)[O-])N1CCN(S(=O)(=O)c2ccccc2)CC1,16.4,"6510 nM [rising, single point]","29100 nM [rising, single point]"
CCN(CC(=O)Nc1ccc(NC(C)=O)cc1)C(=O)COc1ccccc1-c1ccccc1,-18.3,"4.11 nM [falling, full curve, poor fit]",
CC1CCC(=NNC(=O)Cc2cccn2C)CC1 (stereo unspecified),,"580 nM [rising, full curve]",
COc1cc(/C=C2/C(=O)NN(c3ccc(C)c(Cl)c3)C2=O)cc([N+](=O)[O-])c1O,13.6,,
CN1C(=O)N(CC(=O)N2CCN(c3ccccc3F)CC2)C(=O)C12CCCCC2,-12.6,,"130 nM [falling, partial curve]"
Nc1nonc1-n1nnc(C(=O)N/N=C/c2ccc(OCc3ccccc3F)cc2)c1CN1CCCCC1,10.1,,
O=c1[nH]c2cc3c(cc2cc1CN(CCc1ccccc1)Cc1nnnn1CC1CCCO1)OCO3 (stereo unspecified),35.1,"461 nM [rising, full curve]","1300 nM [rising, full curve]"
CC(C(=O)Nc1ccccc1Sc1ccccc1)N(c1ccccc1)S(C)(=O)=O (stereo unspecified),11.2,,
Cc1cc(C(=O)N2CCCC(CCC(=O)N3CCN(c4ccccn4)CC3)C2)c(C)o1 (stereo unspecified),-27.4,,"18400 nM [falling, single point]"

SMILES,cell number change [%],AC50 [1],AC50 [2]
CCOc1cc(/C=N/NC(=O)CCn2nc(C)cc2C)ccc1O,21.7,,"32600 nM [rising, single point]"
CCc1ccc(CNCCSc2nnnn2C)cc1,,"6510 nM [falling, single point]",
N#C/C(=C\Nc1ccc2c(c1)OCCO2)c1nc(-c2ccccc2)cs1,20.1,,"1300 nM [rising, full curve]"
COc1ccc(N2C(=O)CSC23C(=O)N2CCCc4cccc3c42)cc1 (stereo unspecified),2.84,,"14600 nM [rising, single point]"
CC1=C(C)CC(C(=O)NNC(=O)c2ccccc2O)C(C(=O)O)C1 (stereo unspecified),-27.7,,"23100 nM [falling, partial curve]"
O=C(Nc1cccnc1Cl)c1ccc(Cl)cc1,0.275,,
COc1ccccc1OC(C)C(=O)O (stereo unspecified),92.9,,"20600 nM [rising, partial curve]"
Nc1nnc(CC(=O)NCc2ccccc2)s1,-16.9,"820 nM [falling, full curve, poor fit]",
CC1CC(C)CN(CCCNC(=O)CN2C(=O)c3cccnc3Oc3ccccc32)C1 (stereo unspecified),-10.5,"326 nM [falling, full curve, poor fit]","6510 nM [falling, single point]"
COc1ccc(Cn2c(=O)[nH]c3cc(C(=O)N4CCN(c5ccc(OC)cc5)CC4)ccc3c2=O)cc1,19.2,,"29100 nM [rising, single point]"
NC(=O)c1ccccc1NC(=O)COC(=O)C1(c2ccccc2)CC1,-12.3,,
CCCCN(Cc1nc2ccccc2c(=O)[nH]1)C(=O)COc1ccc(F)cc1Cl,0.735,"103 nM [falling, full curve, poor fit]","7310 nM [rising, partial curve]"
Cn1c(Oc2ccc(F)cc2F)c(C=O)c2ccccc21,0.525,,"5.17 nM [falling, full curve, poor fit]"
COc1cccc(-n2c(C)nc3c(cnn3-c3ccc(C)cc3)c2=O)c1,,,"23100 nM [rising, partial curve]"
Cc1ccc(S(=O)(=O)N(C)c2ccc(C(=O)NCC(c3ccco3)N(C)C)cc2)cc1 (stereo unspecified),,,"6510 nM [falling, partial curve, poor fit]"
O=Cc1cccn1-c1c(C(=O)O)cnn1-c1ccccc1,-56.6,"651 nM [falling, full curve]","731 nM [falling, full curve]"
CCOC(=O)c1cc(C(=O)OCC)c2ccccn2c1=O,12.2,"651 nM [rising, single point]",
O=C(N/N=C/C(Br)=C/c1ccccc1)c1cc(-c2ccco2)[nH]n1,-25.4,"820 nM [falling, full curve, poor fit]","51.7 nM [falling, full curve, poor fit]"
Cn1c(SCC(=O)Nc2ccc3c(c2)CCC3)nnc1C1CC1,-19.5,,
O=C(c1cccc(C(=O)N2CCN(c3ccc(F)cc3)CC2)c1)N1CCN(c2ccc(F)cc2)CC1,-5.03,,

# Quoted from the listing.
# CC1CC(C)CN(CCCNC(=O)CN2C(=O)c3cccnc3Oc3ccccc32)C1 (stereo unspecified) – AC50 [1]: 326 nM [falling, full curve, poor fit]
# COc1ccc(N2C(=O)CSC23C(=O)N2CCCc4cccc3c42)cc1 (stereo unspecified) – cell number change [%]: 2.84
